Construct, isoform or probe ends are uncertain for at least one entry.
How the values were obtained:
[1] = target: T1, alpha-fetoprotein (AFP) (Homo sapiens) (UniProt P02771); assay: SPR; settings: aptamer anchored, protein in solution; 1x PBS, 25 °C, 30 min, 1300 rpm; 60 µg AFP-modified magnetic beads in 250 µL (effective AFP about 34 nM); washes 1x PBS 0.01% Tween 20; pH not stated; native protein; single-stranded DNA
T1 sequence: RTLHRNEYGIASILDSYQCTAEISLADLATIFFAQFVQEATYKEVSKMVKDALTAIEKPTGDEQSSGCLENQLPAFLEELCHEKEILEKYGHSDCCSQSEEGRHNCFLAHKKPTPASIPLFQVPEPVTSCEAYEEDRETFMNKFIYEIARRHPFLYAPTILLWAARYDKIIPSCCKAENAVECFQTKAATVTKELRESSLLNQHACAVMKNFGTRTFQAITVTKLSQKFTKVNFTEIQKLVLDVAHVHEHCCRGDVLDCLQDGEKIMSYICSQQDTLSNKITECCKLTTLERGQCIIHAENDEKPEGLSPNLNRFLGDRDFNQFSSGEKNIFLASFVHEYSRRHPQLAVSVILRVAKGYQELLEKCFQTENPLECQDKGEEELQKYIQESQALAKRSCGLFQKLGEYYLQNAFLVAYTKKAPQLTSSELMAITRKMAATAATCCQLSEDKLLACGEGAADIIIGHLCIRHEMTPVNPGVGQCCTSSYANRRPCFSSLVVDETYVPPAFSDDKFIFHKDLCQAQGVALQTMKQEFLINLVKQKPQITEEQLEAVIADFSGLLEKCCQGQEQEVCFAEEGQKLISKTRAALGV

[2] = target: T1, alpha-fetoprotein (AFP) (Homo sapiens); assay: sandwich assay with antibody reporter; settings: aptamer as capture element; 1x PBS, 25 °C, 30 min, 1300 rpm; 60 µg AFP-modified magnetic beads in 250 µL (effective AFP about 34 nM); washes 1x PBS 0.01% Tween 20; pH not stated; native protein; single-stranded DNA

Row | Sequence | Kd [1] [µM] | Kd [2] [µM]
1 | GGCAGGAAGACAAACAAGCTTGGCGGCGGGAAGGTGTTTAAATTCCCGGGTCTGCGTGGTCTGTGGTGCTGT [AFP-L (label of cited work not stated)] | 0.00237 | 0.017
2 | TCAGGTGCAGTTCTCGACTCGGTCTTGATGTGGGT [AFP-S (label of cited work not stated)] | – | 0.019
